According to patent publication US20210340231A1 (FAPON BIOTECH, published 2021):
No constants are given. Whether binding was seen depends on the method and setting. Some binding calls cover weakened binding; strength is not graded here.

Target: CTNI quality control recombinant protein (PK2-CTNI-1, 170120, produced by the applicant) (human) (UniProt P19429)
Assay: indirect ELISA on coated cTnI

binding: binds
B1: Mutation 1 (antibody, V domains shown)
VH: EVQLQQSGAELVKPGASVKLSCTASGFNLKDYFMHWMKQRTEQGLDWIGRIDPEDAETRYAPEFQGKATITADTSSNTAYLQLSTLTSEDTAVYYCARYYSSYIPFVYWGQGTLVTASA
VL: DVVMTQTPLSLSVSLGDQASISCRSSQSIIYSNRHTYLHWYLQKPGQSPKLLIFQISNRFSGVPDRFSGSGSGTDFTLKINRVEAEDLGVYFCSQSTHLPFTFGSGTKLEIKR
notes: No residue numbers are printed, so each chain is built as FR1-CDR1-FR2-CDR2-FR3-CDR3-FR4-constant
